This passage reports binding results from PMC6128908, “Potent PDZ-Domain PICK1 Inhibitors that Modulate Amyloid Beta-Mediated Synaptic Dysfunction” (Scientific Reports, 2018).

Sequences of proteins named here, by UniProt entry; tags and fusion partners are left off. A change or cut given only in a name is not applied to a line headed by its entry.
UniProt Q9BYB0: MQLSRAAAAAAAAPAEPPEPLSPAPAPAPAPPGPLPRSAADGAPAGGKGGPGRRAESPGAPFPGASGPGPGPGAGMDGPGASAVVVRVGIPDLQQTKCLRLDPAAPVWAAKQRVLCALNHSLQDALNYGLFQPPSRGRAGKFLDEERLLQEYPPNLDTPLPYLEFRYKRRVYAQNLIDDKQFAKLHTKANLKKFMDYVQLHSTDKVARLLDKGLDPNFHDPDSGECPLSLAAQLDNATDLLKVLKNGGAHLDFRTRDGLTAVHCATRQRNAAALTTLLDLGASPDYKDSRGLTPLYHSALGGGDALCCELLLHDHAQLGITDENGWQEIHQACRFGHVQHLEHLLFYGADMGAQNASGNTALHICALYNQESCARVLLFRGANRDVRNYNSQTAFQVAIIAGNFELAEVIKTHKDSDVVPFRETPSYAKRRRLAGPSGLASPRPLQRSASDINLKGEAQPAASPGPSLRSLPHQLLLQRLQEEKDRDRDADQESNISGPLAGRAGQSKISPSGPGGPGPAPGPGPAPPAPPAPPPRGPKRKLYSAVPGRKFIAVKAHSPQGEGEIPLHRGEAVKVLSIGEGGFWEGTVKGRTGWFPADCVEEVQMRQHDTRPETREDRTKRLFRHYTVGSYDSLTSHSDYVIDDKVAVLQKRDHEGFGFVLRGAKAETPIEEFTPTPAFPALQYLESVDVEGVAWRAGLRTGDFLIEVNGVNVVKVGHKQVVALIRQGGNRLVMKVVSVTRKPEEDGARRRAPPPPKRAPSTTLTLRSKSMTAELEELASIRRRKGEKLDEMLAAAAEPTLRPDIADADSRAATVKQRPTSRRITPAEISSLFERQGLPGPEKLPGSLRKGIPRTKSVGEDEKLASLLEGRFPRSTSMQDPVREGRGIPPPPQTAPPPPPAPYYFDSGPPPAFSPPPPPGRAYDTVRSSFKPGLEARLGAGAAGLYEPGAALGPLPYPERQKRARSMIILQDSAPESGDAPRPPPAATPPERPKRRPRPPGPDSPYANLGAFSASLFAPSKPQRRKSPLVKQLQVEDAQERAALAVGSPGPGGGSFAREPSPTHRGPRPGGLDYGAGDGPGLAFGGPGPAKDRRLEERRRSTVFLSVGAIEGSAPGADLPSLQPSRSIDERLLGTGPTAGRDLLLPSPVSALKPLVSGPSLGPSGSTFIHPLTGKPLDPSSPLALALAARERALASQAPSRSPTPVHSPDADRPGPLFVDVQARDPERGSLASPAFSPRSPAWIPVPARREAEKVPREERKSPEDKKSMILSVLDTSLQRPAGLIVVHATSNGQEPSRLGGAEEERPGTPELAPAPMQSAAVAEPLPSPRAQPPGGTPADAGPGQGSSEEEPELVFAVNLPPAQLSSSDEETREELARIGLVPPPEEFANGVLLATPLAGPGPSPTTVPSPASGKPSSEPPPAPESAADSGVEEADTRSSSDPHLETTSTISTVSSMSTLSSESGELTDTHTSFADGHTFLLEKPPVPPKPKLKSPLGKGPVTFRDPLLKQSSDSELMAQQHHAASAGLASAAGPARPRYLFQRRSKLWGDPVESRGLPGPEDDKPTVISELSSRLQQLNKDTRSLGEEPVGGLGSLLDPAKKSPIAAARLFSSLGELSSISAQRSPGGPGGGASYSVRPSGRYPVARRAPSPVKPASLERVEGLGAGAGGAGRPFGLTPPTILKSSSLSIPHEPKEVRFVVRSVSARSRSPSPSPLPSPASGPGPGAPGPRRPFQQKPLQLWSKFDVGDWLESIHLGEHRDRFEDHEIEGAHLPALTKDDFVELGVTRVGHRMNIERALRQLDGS

These are yes or no findings as the source states them, for the method shown. Binding calls can cover weak binding; strength is not graded here.

In this assay the target is Human Shank3 PDZ domain (residues 663–757) (human) (UniProt Q9BYB0). In words: fluorescence polarisation; competition FP: FITC-labeled peptides fixed at 5 nM, non-saturating protein concentrations (PICK1 600 nM; PSD95 PDZ 1–2 8 µM; Shank3 8 µM), unlabeled peptides or compound varied; normalised to binding and tracer-only controls; both purified.

B1: GKAP peptide (peptide)
peptide: YIPEAQTRL
Consider B1, for which the binding result is on record as “binds”.
